PubChem BioAssay AID504805, Drosophila RNAi Screening Center – 2011
This is not the whole library: the list holds selected reagents. 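Phenotypes are words from visual inspection of images, not measured scores.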 Names joined by + are all predicted targets of the reagent.

- Test: 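Genome-wide fly cell screen for factors exporting mRNA from the nucleus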 (primary screen)
- System: Drosophila S2R+ cells
- Knock-down reagent: long dsRNA against Drosophila genes, 0.25 µg dsRNA per well
- Timing: 4 days
- Read-out: 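Microscope images of cells stained for poly(A) RNA with a fluorescent oligo-dT probe and for DNA, assessed visually, with a phenotype description given for each replicate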

Knock-down of KP78a + KP78b [DRSC23338] came out at: phenotype, replicate 1 = poly(A) RNA held back in the nucleus.
After knock-down of Acp36DE (Accessory gland protein 36DE) [DRSC01860] the results were phenotype, replicate 1 = poly(A) RNA held back in the nucleus.
SmD3 (Small ribonucleoprotein particle protein SmD3) [DRSC07553] showed phenotype, replicate 1 = poly(A) RNA held back in the nucleus; phenotype, replicate 2 = poly(A) RNA held back in the nucleus.
Against Lim1 (LIM homeobox 1) [DRSC18677] the deposit lists phenotype, replicate 1 = poly(A) RNA held back in the nucleus.
For Sodq (Sodesque) [DRSC15924], the entry reads phenotype, replicate 1 = poly(A) RNA held back in the nucleus.
Against SLO2 (slowpoke 2) [DRSC06219], the entry reads phenotype, replicate 1 = poly(A) RNA held back in the nucleus.
For RpL18 (Ribosomal protein L18) [DRSC11016], the entry reads phenotype, replicate 1 = poly(A) RNA held back in the nucleus.
With knock-down of RpL18 (Ribosomal protein L18) [DRSC22323] the results were phenotype, replicate 1 = poly(A) RNA held back in the nucleus; phenotype, replicate 2 = poly(A) RNA held back in the nucleus.
After knock-down of CG17803 [DRSC22811], the screen gave phenotype, replicate 1 = poly(A) RNA held back in the nucleus.
With knock-down of CG15296 [DRSC17983], the screen gave phenotype, replicate 1 = poly(A) RNA held back in the nucleus; phenotype, replicate 2 = poly(A) RNA held back in the nucleus.
Atpalpha (Na pump alpha subunit) [DRSC14119] showed phenotype, replicate 1 = poly(A) RNA held back in the nucleus.
After knock-down of DopEcR (Dopamine/Ecdysteroid receptor) [DRSC08529] the results were phenotype, replicate 1 = poly(A) RNA held back in the nucleus.
After knock-down of CG4592 [DRSC02761] the results were phenotype, replicate 2 = poly(A) RNA held back in the nucleus.
ric8b + ric8a [DRSC18104] gave phenotype, replicate 1 = poly(A) RNA held back in the nucleus; phenotype, replicate 2 = poly(A) RNA held back in the nucleus.
CG13561 [DRSC04199] gave phenotype, replicate 1 = poly(A) RNA held back in the nucleus.
twf (twinfilin) [DRSC15466] gave phenotype, replicate 1 = poly(A) RNA held back in the nucleus.
CG42588 [DRSC09820] scored phenotype, replicate 1 = poly(A) RNA held back in the nucleus.
CG1138 [DRSC12530] gave phenotype, replicate 1 = poly(A) RNA held back in the nucleus.
Knock-down of peng (penguin) [DRSC20583] came out at: phenotype, replicate 1 = poly(A) RNA held back in the nucleus.
Silencing of Sap130 (Sin3A-associated protein 130) [DRSC09680] came out at: phenotype, replicate 1 = poly(A) RNA held back in the nucleus.
Nlg4 (Neuroligin 4) [DRSC15701] showed phenotype, replicate 1 = poly(A) RNA held back in the nucleus.
Knock-down of CG17597 [DRSC02630] came out at: phenotype, replicate 1 = poly(A) RNA held back in the nucleus.
Against Est-Q (Esterase Q) [DRSC11835], the entry reads phenotype, replicate 1 = poly(A) RNA held back in the nucleus.
With knock-down of Pabp2 [DRSC07501], the record shows phenotype, replicate 1 = poly(A) RNA held back in the nucleus; phenotype, replicate 2 = poly(A) RNA held back in the nucleus.
Knock-down of Cpr11A (Cuticular protein 11A) [DRSC19861] resulted in: phenotype, replicate 1 = poly(A) RNA held back in the nucleus.
For CG31126 [DRSC14623] the deposit lists phenotype, replicate 1 = poly(A) RNA held back in the nucleus; phenotype, replicate 2 = poly(A) RNA held back in the nucleus.
CG3902 [DRSC10387] gave phenotype, replicate 1 = poly(A) RNA held back in the nucleus.

Already shown: entries from further up.
CG13561 [DRSC04199] → phenotype, replicate 1 = poly(A) RNA held back in the nucleus
twf (twinfilin) [DRSC15466] → phenotype, replicate 1 = poly(A) RNA held back in the nucleus
CG42588 [DRSC09820] → phenotype, replicate 1 = poly(A) RNA held back in the nucleus
CG1138 [DRSC12530] → phenotype, replicate 1 = poly(A) RNA held back in the nucleus
peng (penguin) [DRSC20583] → phenotype, replicate 1 = poly(A) RNA held back in the nucleus
Sap130 (Sin3A-associated protein 130) [DRSC09680] → phenotype, replicate 1 = poly(A) RNA held back in the nucleus

Next results follow.
Mnr (Membrane-bound Notch regulator) [DRSC20550] scored phenotype, replicate 1 = poly(A) RNA held back in the nucleus.
With knock-down of Msp300 (Muscle-specific protein 300 kDa) [DRSC00854], the screen gave phenotype, replicate 1 = poly(A) RNA held back in the nucleus.
ImpE1 (Ecdysone-inducible gene E1) [DRSC11196] showed phenotype, replicate 1 = poly(A) RNA held back in the nucleus.
lncRNA:CR32657 (long non-coding RNA:CR32657) [DRSC19403] gave phenotype, replicate 1 = poly(A) RNA held back in the nucleus.
After knock-down of Syx17 (Syntaxin 17) [DRSC08591], the screen gave phenotype, replicate 1 = poly(A) RNA held back in the nucleus.
With knock-down of CG6656 [DRSC16085] the results were phenotype, replicate 1 = poly(A) RNA held back in the nucleus.
For tau [DRSC14569], the entry reads phenotype, replicate 1 = poly(A) RNA held back in the nucleus.
Depletion of CG7800 [DRSC16315] came out at: phenotype, replicate 1 = poly(A) RNA held back in the nucleus.
With knock-down of RpLP1 (Ribosomal protein LP1) [DRSC22145], the record shows phenotype, replicate 1 = poly(A) RNA held back in the nucleus.
After knock-down of CG13130 (retired record) [DRSC02226], the record shows phenotype, replicate 1 = poly(A) RNA held back in the nucleus.
For CG14641 [DRSC12227] the deposit lists phenotype, replicate 1 = poly(A) RNA held back in the nucleus; phenotype, replicate 2 = poly(A) RNA held back in the nucleus.
Orct2 (Organic cation transporter 2) [DRSC14613] showed phenotype, replicate 1 = poly(A) RNA held back in the nucleus.
After knock-down of bab1 (bric a brac 1) [DRSC08379], the record shows phenotype, replicate 1 = poly(A) RNA held back in the nucleus.
For PpY-55A (Protein phosphatase Y at 55A) [DRSC23328] the deposit lists phenotype, replicate 1 = poly(A) RNA held back in the nucleus.
Against bs (blistered) [DRSC04676], the entry reads phenotype, replicate 1 = poly(A) RNA held back in the nucleus.
With knock-down of Sf3a1 (Splicing factor 3a subunit 1) [DRSC15166], the screen gave phenotype, replicate 1 = poly(A) RNA held back in the nucleus.
trr (trithorax-related) [DRSC23290] gave phenotype, replicate 1 = poly(A) RNA held back in the nucleus.
Depletion of CG5466 [DRSC15808] came out at: phenotype, replicate 1 = poly(A) RNA held back in the nucleus; phenotype, replicate 2 = poly(A) RNA held back in the nucleus.
Ten-m (Tenascin major) [DRSC11882] gave phenotype, replicate 1 = poly(A) RNA held back in the nucleus.
